Measurements published in PMC5847621.
Results are given in words; binding and its absence hold for the method and conditions named. Some binding calls cover weakened binding; strength is not graded here.

By UniProt entry, the sequences of proteins in these tests, tags left out. Residues count along the entry.
UniProt P0C2X0, residues 17-511: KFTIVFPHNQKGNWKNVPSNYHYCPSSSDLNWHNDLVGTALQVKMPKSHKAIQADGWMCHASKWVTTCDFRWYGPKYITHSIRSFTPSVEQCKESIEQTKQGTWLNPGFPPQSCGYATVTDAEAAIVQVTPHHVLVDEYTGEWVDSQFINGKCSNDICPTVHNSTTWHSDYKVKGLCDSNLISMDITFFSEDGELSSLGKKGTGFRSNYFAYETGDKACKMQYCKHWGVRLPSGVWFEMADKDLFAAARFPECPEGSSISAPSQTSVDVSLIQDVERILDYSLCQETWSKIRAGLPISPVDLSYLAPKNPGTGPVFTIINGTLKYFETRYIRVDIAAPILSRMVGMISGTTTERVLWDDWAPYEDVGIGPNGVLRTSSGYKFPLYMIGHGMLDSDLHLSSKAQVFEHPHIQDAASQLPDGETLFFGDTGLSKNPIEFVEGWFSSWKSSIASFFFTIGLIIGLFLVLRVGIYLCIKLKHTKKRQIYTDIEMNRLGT

Target: wild-type VSV G glycoprotein expressed at the surface of HEK293T cells (Vesicular stomatitis virus (Indiana Mudd-Summer strain)) (UniProt P0C2X0)
Assay: flow cytometry on cells; only the binder purified

With “GST-CR2 fluorescently labeled with ATTO550 (from UniProt P01130-1 65-106) (domain or fragment)” the binding was “binds”.

In the case of “GST-CR3 fluorescently labeled with ATTO550 (from UniProt P01130-1 108-144) (domain or fragment)”, the binding is reported as “binds”.
